In PMC4936714:
These are yes or no findings as the source states them, for the method shown. Binding seen in cells or lysates may run through a third protein. Here binding means that the protein was enriched with, or labelled near, the bait; the list need not be complete.

Protein sequences, listed by entry. Tags and fused reporters are not part of them. Lines headed by an entry give the natural chain unless they say otherwise; changes in a name come on top. Residues count along the entry.
UniProt Q16740: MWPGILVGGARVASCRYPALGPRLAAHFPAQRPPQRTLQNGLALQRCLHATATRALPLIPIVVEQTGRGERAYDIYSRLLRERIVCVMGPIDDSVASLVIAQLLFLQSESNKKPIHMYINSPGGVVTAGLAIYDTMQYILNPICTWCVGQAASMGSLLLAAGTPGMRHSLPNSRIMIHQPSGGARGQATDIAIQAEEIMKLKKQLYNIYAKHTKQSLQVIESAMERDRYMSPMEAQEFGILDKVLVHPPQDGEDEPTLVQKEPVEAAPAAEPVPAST
UniProt O75127: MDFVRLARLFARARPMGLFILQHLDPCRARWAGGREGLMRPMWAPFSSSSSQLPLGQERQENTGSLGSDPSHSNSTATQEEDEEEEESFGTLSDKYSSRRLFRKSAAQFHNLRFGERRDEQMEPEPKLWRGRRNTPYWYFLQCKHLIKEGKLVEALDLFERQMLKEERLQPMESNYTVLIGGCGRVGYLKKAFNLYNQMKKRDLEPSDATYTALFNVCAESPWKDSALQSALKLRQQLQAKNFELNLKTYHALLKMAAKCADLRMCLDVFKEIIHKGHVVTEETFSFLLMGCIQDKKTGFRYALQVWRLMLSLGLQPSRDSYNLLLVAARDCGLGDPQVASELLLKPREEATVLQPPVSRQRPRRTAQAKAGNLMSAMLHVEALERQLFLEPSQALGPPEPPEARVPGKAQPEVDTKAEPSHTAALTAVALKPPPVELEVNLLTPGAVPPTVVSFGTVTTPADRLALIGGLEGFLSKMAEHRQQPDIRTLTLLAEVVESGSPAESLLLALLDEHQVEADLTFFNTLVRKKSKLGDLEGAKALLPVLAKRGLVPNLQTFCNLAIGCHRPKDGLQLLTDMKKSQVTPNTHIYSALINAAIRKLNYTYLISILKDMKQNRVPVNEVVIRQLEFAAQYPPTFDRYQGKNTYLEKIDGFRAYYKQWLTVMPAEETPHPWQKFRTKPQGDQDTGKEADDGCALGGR
UniProt Q96CB9, residues 26-384: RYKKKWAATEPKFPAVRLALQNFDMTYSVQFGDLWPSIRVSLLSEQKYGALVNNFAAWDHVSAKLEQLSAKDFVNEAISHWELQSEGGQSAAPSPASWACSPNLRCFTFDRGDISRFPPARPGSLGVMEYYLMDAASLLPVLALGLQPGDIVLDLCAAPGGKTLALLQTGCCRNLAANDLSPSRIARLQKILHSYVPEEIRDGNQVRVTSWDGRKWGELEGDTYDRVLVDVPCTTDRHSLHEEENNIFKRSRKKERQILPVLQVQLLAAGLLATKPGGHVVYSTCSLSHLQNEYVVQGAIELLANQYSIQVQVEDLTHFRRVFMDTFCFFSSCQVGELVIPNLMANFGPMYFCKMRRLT

B1: COQ7 (enzyme, UniProt Q99807 36-217)
chain: SSGMTLDNISRAAVDRIIRVDHAGEYGANRIYAGQMAVLGRTSVGPVIQKMWDQEKDHLKKFNELMVTFRVRPTVLMPLWNVLGFALGAGTALLGKEGAMACTVAVEESIAHHYNNQIRTLMEEDPEKYEELLQLIKKFRDEELEHHDIGLDHDAELAPAYAVLKSIIQAGCRVAIYLSERL

target: survivin (human (endogenous in PC3)) (UniProt O15392); test: affinity purification with mass spectrometry; PC3 mitochondrial extracts precipitated with an antibody to survivin or control IgG; proteomics identification, two independent replicates per condition

Molecule	binding
ClpP, AAA+ peptidase subunit of the ClpXP complex (from UniProt Q16740 57-277) (enzyme)	binds
PTCD1 (from UniProt O75127 1-700)	binds
NSUN4 (from UniProt Q96CB9 26-384) (enzyme)	binds
B1	binds
